In PMC11594608, “Sulfonamide-Based Inhibition of the β-Carbonic Anhydrase from A. baumannii, a Multidrug-Resistant Bacterium” (International Journal of Molecular Sciences, 2024):

Molecular target: T1, βAbauCA (CanB) (Acinetobacter baumannii, UniProt A0A7U3Y636)
T1 construct: gene AB57_1063; oligomer not determined here
T1 sequence (A0A7U3Y636 1-204): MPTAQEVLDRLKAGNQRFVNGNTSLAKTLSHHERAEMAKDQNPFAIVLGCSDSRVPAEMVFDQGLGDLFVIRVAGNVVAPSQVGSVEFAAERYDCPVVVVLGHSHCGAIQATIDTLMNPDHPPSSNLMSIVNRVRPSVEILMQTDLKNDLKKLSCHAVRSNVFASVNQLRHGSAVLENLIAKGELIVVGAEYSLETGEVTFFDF
Assay: stopped-flow CO2 hydrase assay
Format: biochemical
Conditions: read-out: KI (nM) ^a / βAbauCA

Ki: 650 nM
SMILES: Nc1ccc(S(N)(=O)=O)cc1 [compound 2, 2]
